Measurements reported in PubChem BioAssay AID1671195 (Yale University, 2021).

Screen: 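Knockdowns that increase or decrease uptake of fluorescent LDL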 (primary screen)
Cells: human Huh7 hepatoma cells
Knock-down reagent: siRNA pool against human genes, 18 nM
Time to read-out: about 2 to 2.5 days of knockdown, then 8 h LDL uptake
Treatment: DiI-labelled LDL at 30 µg/ml for 8 h, in lipoprotein-deficient serum medium
Read-out: 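Fluorescent LDL signal imaged in cells, scaled to the plate median, robust z-score for each replicate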
Reading the numbers: robust z-score: higher = more LDL uptake after knockdown
Rule for the call: 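a gene counts as active if at least two replicate z-scores exceed ±2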
In all, the deposit lists about 22,000 reagents; shown is a part drawn at random. In the full data, about 1,510 (6.9%) are marked active. 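Active includes knockdowns raising or lowering LDL uptake; positive z-scores mean more uptake, negative mean less.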

no.	target gene	robust z-score, replicate 1	robust z-score, replicate 2	robust z-score, replicate 3	activity call
1	B4GALNT4	-0.954	-0.905	-0.754	inactive
2	ARSI	-1.77	-1.98	-1.58	inactive
3	MYADML2	-0.247	-0.0899	-0.362	inactive
4	SKP1	0.211	0.432	-0.763	inactive
5	SRARP	2.12	1.86	4.16	active
6	ZMIZ1	-1.21	-0.247	0.195	inactive
7	GDPD1	-0.00633	0.161	-0.00361	inactive
8	PPM1L	1.11	1.48	1.33	inactive
9	KRT12	0.0564	-0.134	1.04	inactive
10	SLC34A1	-0.196	-1.04	0.0216	inactive
11	RPL31P51	1.18	1.24	1.24	inactive
12	NFIL3	0.0575	0.689	0.462	inactive
13	MAPK9	0.582	2.99	2.97	active
14	RTEL1	-0.0701	0.12	-0.0477	inactive
15	TMEM61	-0.588	-0.288	-0.876	inactive
16	DOK5	0.0133	-1.06	-0.37	inactive
17	SPTLC2	-1.14	-1.32	-0.933	inactive
18	ZCWPW2	-0.323	-0.13	-0.619	inactive
19	ANGPTL3	-1.01	-0.338	0.816	inactive
20	SH3GL2	1.59	-0.213	0.276	inactive
21	ZNF114	-0.694	-1.29	-1.36	inactive
22	ULK2	-0.125	-0.614	0.0585	inactive
23	TCEA3	0.724	0.19	0.598	inactive
24	LOC389185 (retired record)	2.58	1.39	0.769	inactive
25	ZCCHC14	-0.358	1.69	-1.21	inactive
26	SOX7	-0.838	-0.415	-1.03	inactive
27	ZDHHC22	1.49	1.48	1.77	inactive
28	SLC9A6	-0.917	-1.29	-0.671	inactive

Sorted by “robust z-score, replicate 2” (low to high): some entries from above.
target gene	robust z-score, replicate 1	robust z-score, replicate 2	robust z-score, replicate 3	activity call
SLC34A1	-0.196	-1.04	0.0216	inactive
KRT12	0.0564	-0.134	1.04	inactive
